Results from US20230312729A1.
These are yes or no findings as the source states them, for the method shown. Some binding calls cover weakened binding; strength is not graded here.

Chains of the proteins cited; added tags and fusions are not shown. Residues count along the entry.
UniProt P07766, residues 23-126: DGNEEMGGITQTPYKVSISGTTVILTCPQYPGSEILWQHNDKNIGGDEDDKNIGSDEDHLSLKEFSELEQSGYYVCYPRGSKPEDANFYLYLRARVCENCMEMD

Target: Biotinylated CD3 epsilon antigen (Creative Biomart) (UniProt P07766)
Assay: BLI (ForteBio BLItz)

| Binder | binding |
| --- | --- |
| CD3.23 scFv (scFv) scFv: ELVVTQEPSLTVSPGGTVTLTCRSSNGAVTSSNYANWVQQKPGQAPRGLIGGTNKRAPGTPARFSGSLLGGKAALTLSGVQPEDEAVYYCALWYPNLWVFGGGTKLTVLGATPPETGAETESPGETTGGSAESEPPGEGEVQLLESGGGIVQPGGSLKLSCAASGFTFNTYAMNWVRQAPGKGLEWVARIRSKYNNYATYYADSVKDRFTISRDDSKNTVYLQMNNLKTEDTAVYYCVRHENFGNSYVSWFAHWGQGTLVTVSS | binds |
| CD3.26 scFv (scFv) scFv: ELVVTQEPSHTVSPGGTVTLTCRSSTGEVTTSNYANWVQQKPGQAPRGLIGGTIKRAPGTPARFSGSLLGGKAALTLSGVQPEDEAEYYCALWYPNLWVFGGGTKLTVLGATPPETGAETESPGETTGGSAESEPPGEGEVQLLESGGGIVQPGGSLKLSCAASGFTFNTYAMNWVRQAPGKGLEWVARIRSKYNNYATYYADSVKDRFTISRDDSKNTVYLQMNNLKTEDTAVYYCVRHENFGNSYVSWFAHWGQGTLVTVSS | binds |

Second part, the binder after the results:

| binding | Binder |
| --- | --- |
| binds | CD3.24 scFv (scFv) scFv: ELVVTQEPSLTVSPGGTVTLTCRSSNGEVTTSNYANWVQQKPGQAPRGLIGGTIKRAPGTPARFSGSLLGGKAALTLSGVQPEDEAVYYCALWYPNLWVFGGGTKLTVLGATPPETGAETESPGETTGGSAESEPPGEGEVQLLESGGGIVQPGGSLKLSCAASGFTFNTYAMNWVRQAPGKGLEWVARIRSKYNNYATYYADSVKDRFTISRDDSKNTVYLQMNNLKTEDTAVYYCVRHENFGNSYVSWFAHWGQGTLVTVSS |
| binds | CD3.25 scFv (scFv) scFv: ELVVTQEPSHTVSPGGTVTLTCRSSTGAVTSSNYANWVQQKPGQAPRGLIGGTIKRAPGTPARFSGSLLGGKAALTLSGVQPEDEAEYYCALWYPNLWVFGGGTKLTVLGATPPETGAETESPGETTGGSAESEPPGEGEVQLLESGGGIVQPGGSLKLSCAASGFTFNTYAMNWVRQAPGKGLEWVARIRSKYNNYATYYADSVKDRFTISRDDSKNTVYLQMNNLKTEDTAVYYCVRHENFGNSYVSWFAHWGQGTLVTVSS |
